Measurements reported in PubChem BioAssay AID1259308 (NCATS, 2017)
Here is an unselected part of about 59,000 deposited reagents. Of all reagents, about 1,510 (2.6%) were called active. 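Calls use total luciferase alone and ignore viability, so some active siRNAs may act by altering cell number.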 Unmarked entries are inactive. The numbers tell different reagents against one gene apart. No sequences are given here.

Screen: 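Knock-downs that increase output of a recombinant reporter protein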 (primary screen)
System: human HEK293 embryonic kidney cells stably expressing firefly luciferase (HEK-CMV-Luc2-Hygro)
Knock-down reagent: single siRNA against human genes, 0.8 pmol siRNA per well
Duration: 72 h
Measurement: 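Luciferase light (ONE-Glo) measured on one replicate plate set and viability (CellTiter-Glo) on the other, scaled to a negative control siRNA, with robust z-scores and luciferase per cell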
Reading the numbers: total luciferase, z-score and total luciferase, % of control: higher = more reporter protein produced; luciferase per cell, z-score: higher = more reporter output per viable cell; viable cells, % of control: higher = more viable cells
Call rule: 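An siRNA counts as active if its total luciferase robust z-score exceeds 3; genes with two or more such siRNAs out of three were retested with fresh siRNAs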
Calls: active = raised luciferase; inactive = no rise

gene | reagent no. | total luciferase, z-score | total luciferase, % of control | luciferase per cell, z-score | viable cells, % of control
IFI30 (GeneID 10437) | 1 | -0.301 | 75.9 | -0.242 | 90.4
IFI30 (GeneID 10437) | 2 | -1.04 | 61.2 | -1.01 | 89.4
IFI30 (GeneID 10437) | 3 | 0.102 | 83.9 | 0.00111 | 93.7
IQSEC3P3 (GeneID 728056) | 1 | 0.792 | 97.6 | -0.00386 | 109
IQSEC3P3 (GeneID 728056) | 2 | -0.521 | 71.5 | 0.85 | 63.9
IQSEC3P3 (GeneID 728056) | 3 | -0.693 | 68.1 | -0.791 | 93.7
ANKRD1 (GeneID 27063) | 1 | 0.83 | 98.4 | 0.614 | 93.5
ANKRD1 (GeneID 27063) | 2 | 6.65 (active) | 214 | 4.04 | 82.5
ANKRD1 (GeneID 27063) | 3 | -1.1 | 60 | -0.373 | 74
TNFSF10 (GeneID 8743) | 1 | -0.772 | 66.5 | -1.06 | 98.2
TNFSF10 (GeneID 8743) | 2 | -0.848 | 65 | -1.11 | 97.3
TNFSF10 (GeneID 8743) | 3 | -1.02 | 61.5 | -1.41 | 99.7
KCNQ3 (GeneID 3786) | 1 | 0.662 | 95.1 | -0.0208 | 107
KCNQ3 (GeneID 3786) | 2 | 0.0348 | 82.6 | -0.555 | 107
KCNQ3 (GeneID 3786) | 3 | 5.63 (active) | 194 | 2.83 | 103
PAFAH1B1 (GeneID 5048) | 1 | 0.421 | 90.3 | 0.276 | 93.8
PAFAH1B1 (GeneID 5048) | 2 | -0.16 | 78.7 | 0.94 | 68.7
PAFAH1B1 (GeneID 5048) | 3 | 1.41 | 110 | 1.62 | 80.2
ARMC7 (GeneID 79637) | 1 | 0.211 | 86.1 | 0.746 | 79
ARMC7 (GeneID 79637) | 2 | -0.621 | 69.5 | -1.04 | 102
ARMC7 (GeneID 79637) | 3 | 0.619 | 94.2 | 0.145 | 101
BPTF (GeneID 2186) | 1 | 1.98 | 121 | 2.19 | 76.2
BPTF (GeneID 2186) | 2 | -1.26 | 56.9 | -1.35 | 90.6
BPTF (GeneID 2186) | 3 | 1.63 | 114 | 1.82 | 79
TBXT (GeneID 6862) | 1 | 0.584 | 93.5 | 0.843 | 83.7
TBXT (GeneID 6862) | 2 | 0.201 | 85.9 | -0.345 | 105
TBXT (GeneID 6862) | 3 | -2.5 | 32.2 | -1.54 | 54
GDPGP1 (GeneID 390637) | 1 | -0.261 | 76.7 | -0.24 | 91.3
GDPGP1 (GeneID 390637) | 2 | 0.706 | 95.9 | 0.482 | 94.4
GDPGP1 (GeneID 390637) | 3 | 0.812 | 98 | 0.609 | 93.3
PLPP7 (GeneID 84814) | 1 | -0.993 | 62.1 | -0.609 | 81.5
PLPP7 (GeneID 84814) | 2 | -0.632 | 69.3 | -0.847 | 96.8
PLPP7 (GeneID 84814) | 3 | -0.695 | 68.1 | -0.851 | 95.2
ORC6 (GeneID 23594) | 1 | -0.533 | 71.3 | -1.02 | 104
ORC6 (GeneID 23594) | 2 | -0.0282 | 81.3 | -0.229 | 96.5
ORC6 (GeneID 23594) | 3 | -1.61 | 49.8 | -1.88 | 91.3
UBE2G2 (GeneID 7327) | 1 | 0.52 | 92.2 | 0.489 | 90.6
UBE2G2 (GeneID 7327) | 2 | 1.16 | 105 | 0.352 | 107
UBE2G2 (GeneID 7327) | 3 | -1.09 | 60.3 | -1.89 | 111
MRPS10 (GeneID 55173) | 1 | 0.662 | 95 | -0.00264 | 106
MRPS10 (GeneID 55173) | 2 | 1.35 | 109 | 1.09 | 91.1
MRPS10 (GeneID 55173) | 3 | -0.0679 | 80.5 | 0.286 | 83.5
TMEM234 (GeneID 56063) | 1 | -0.107 | 79.7 | 0.0867 | 87.1
TMEM234 (GeneID 56063) | 2 | 2.56 | 133 | 1.55 | 98.5
TMEM234 (GeneID 56063) | 3 | 0.901 | 99.8 | 1.06 | 84.4
ANKRD31 (GeneID 256006) | 1 | -2.32 | 35.7 | -2.58 | 78.5
ANKRD31 (GeneID 256006) | 2 | -0.427 | 73.4 | -0.306 | 88.9
ANKRD31 (GeneID 256006) | 3 | -0.464 | 72.7 | -0.161 | 84.7
RPS28P6 (GeneID 728453) | 1 | -1.13 | 59.4 | -0.463 | 75
RPS28P6 (GeneID 728453) | 2 | 0.0705 | 83.3 | -0.0866 | 95.2
RPS28P6 (GeneID 728453) | 3 | -1.39 | 54.2 | -0.699 | 72.8
CLCA2 (GeneID 9635) | 1 | -0.385 | 74.2 | -0.306 | 89.9
CLCA2 (GeneID 9635) | 2 | -1.09 | 60.1 | -1.19 | 91.9
CLCA2 (GeneID 9635) | 3 | -1.08 | 60.4 | -1.39 | 97.3
PEX12 (GeneID 5193) | 1 | -0.455 | 72.8 | -0.48 | 92.4
PEX12 (GeneID 5193) | 2 | -0.457 | 72.8 | -0.0761 | 83
PEX12 (GeneID 5193) | 3 | 1.76 | 117 | 2.89 | 60.9
